The campaign covered roughly 300,000 compounds. About 3,700 (1.2%) were called active. Inconclusive results, whose numbers are uncertain, are shown with a selection of clear calls. Calls come from the whole dose curve; tested in HEK293 cells. A potency beside an inconclusive call is a rough fit, not a confirmed value.
Assay: qHTS for Inhibitors of binding or entry into cells for Lassa Virus; note: nearly all actives have a fitted effect of over 50% in size
Settings: Lassa virus pseudotype entry inhibition, cell reporter; activity change, negative = inhibition: at 37.9 µM (top of the series) unless noted
With `O=C(Nc1nnc(CCc2ccccc2)s1)c1ccc(F)cc1` the Potency was “inactive”. In the case of `Cc1cc(C)cc(Nc2cc(C(=O)NCCCN(Cc3ccccc3)C(C)C)c3ccccc3n2)c1`, the Potency is reported as inconclusive: 35.5 µM [inhibitor, single point]. For `Cc1ccnc(NC(=O)c2cc3ccccc3oc2=O)c1`, the Potency was “inactive”. With `Nc1cc2c(cc1C(=O)c1ccccc1)OCCO2` the Potency was inconclusive: 0.708 µM [activator, full curve, poor fit]. For `CCC(C)Nc1nc(N)c([N+](=O)[O-])c(Nc2ccccc2OC)n1` (stereo not given), the Potency was inconclusive: 25.1 µM [inhibitor, partial curve, poor fit]. For `O=C(CSc1nnnn1-c1ccccc1)NCCCN1CCCC1=O`, the Potency was inconclusive: 35.5 µM [inhibitor, single point]. With `COc1cc(OC)cc(C(=O)Nc2sc3c(c2C(N)=O)CCC3)c1` the Potency was inconclusive: 0.562 µM [activator, full curve, poor fit]. With `CCc1ccc(N(CC(=O)NC2CC2)S(=O)(=O)c2ccc(C)cc2)cc1` the Potency was inconclusive: 0.708 µM [inhibitor, partial curve, poor fit]. In the case of `COCCC(=O)N1CCCC(C(=O)c2ccc(C(F)(F)F)cc2)C1` (stereo not given), the Potency is reported as “inactive”. With `Cc1ccc(-c2cc(-c3ccc4c(c3)OCO4)c(C#N)c(N)n2)o1` the Potency was inconclusive: 8.2 µM [inhibitor, partial curve]. For `COc1cc(C2CC(=O)c3c([nH]c(C(=O)OCC4CCCCC4)c3C)C2)cc(OC)c1OC` (stereo not given), the Potency was “inactive”. In the case of `O=C(CSc1nc2ccccc2o1)N/N=C/c1ccccc1`, the Potency is reported as “inactive”. For `CN(CC(=O)NCc1ccncc1)S(=O)(=O)c1cc(Cl)ccc1Cl`, the Potency was “inactive”. In the case of `CCOC(=O)C(=CNc1cc(C)nn1-c1ccc(Cl)cc1)C(=O)OCC`, the Potency is reported as inconclusive: 0.092 µM [inhibitor, full curve, poor fit]. With `Cc1cccc(Nc2nn3c(=O)c4ccccc4nc3s2)c1` the Potency was “inactive”. For `O=C(c1ccccc1)N1CCN=C1SCc1ccc([N+](=O)[O-])cc1`, the Potency was inconclusive: 25.1 µM [inhibitor, single point]. For `CCN(CC)c1ccc(Nc2nc(N3CCOCC3)c3ccccc3n2)cc1`, the Potency was active: 18.3 µM. For `CCC(=O)N1CCN(c2ccccc2NC(=O)COc2cc(C)ccc2C(C)C)CC1`, the Potency was inconclusive: 29.1 µM [inhibitor, single point]. In the case of `COc1ccc(CN(C(=O)c2oc3cc(C)c(C)cc3c2C)C2CCS(=O)(=O)C2)cc1OC` (stereo not given), the Potency is reported as inconclusive: 35.5 µM [inhibitor, partial curve, poor fit]. In the case of `CCCC/C(O)=N\S(=O)(=O)c1ccc(N=NN(C)C)cc1`, the Potency is reported as inconclusive: 35.5 µM [activator, partial curve, poor fit]. With `CC1(C)C(=O)NCCN1C(=O)CSc1nccc(-c2ccc(Br)cc2)n1` the Potency was inconclusive: 0.73 µM [inhibitor, full curve, poor fit]. With `Cc1cccc(C(=O)Nc2ccc(C(=O)N/N=C/c3cccnc3)cc2)c1` the Potency was “inactive”. With `Cc1ccc(SCCC(=O)N2CCN(S(=O)(=O)c3ccccc3)CC2)cc1` the Potency was inconclusive: 35.5 µM [inhibitor, single point]. In the case of `Cc1ccc(S(=O)(=O)NC(=O)c2ccccc2F)cc1`, the Potency is reported as inconclusive: 35.5 µM [activator, single point]. With `COc1cc2c(cc1OC)[C@@H]1C(=O)c3ccc4c(c3O[C@@H]1CO2)C[C@H](C(C)C)O4` the Potency was inconclusive: 12.6 µM [inhibitor, partial curve, poor fit]. In the case of `Cc1cc(-c2onc(C)c2C(=O)O)no1`, the Potency is reported as inconclusive: 5.62 µM [inhibitor, single point]. With `Cc1cccc(Nc2cc(C)c3c(O)cccc3n2)c1C` the Potency was inconclusive: 29.1 µM [inhibitor, single point]. In the case of `Cc1ccc(-n2c(C)cc(C(=O)CSc3n[nH]c(N)n3)c2C)cc1`, the Potency is reported as inconclusive: 29.1 µM [inhibitor, single point]. With `c1ccc(-n2nnnc2Cc2nnnn2-c2ccccc2)cc1` the Potency was “inactive”. In the case of `COc1ccc(/C=N/N2C(=N)SCC2=O)cc1`, the Potency is reported as inconclusive: 1.12 µM [inhibitor, full curve, poor fit]. For `O=C(Nc1ccc(-c2noc(CCc3ccccc3)n2)cc1)c1cccnc1`, the Potency was inconclusive: 12.6 µM [inhibitor, partial curve, poor fit]. With `O=C1Nc2ccccc2/C1=C/c1ccccc1F` the Potency was “inactive”. With `COC(=O)C1CN(S(=O)(=O)c2ccc(C)cc2)CCN1S(=O)(=O)c1ccc(C)cc1` (stereo not given) the Potency was inconclusive: 1.78 µM [inhibitor, full curve, poor fit]. With `COC(=O)[C@@]1(Cc2ccccc2)[C@@H]2C(=CC(=O)[C@H]2CC(=O)C(=O)N(C)C)CN1C(=O)c1ccccc1` the Potency was inconclusive: 13 µM [inhibitor, partial curve]. In the case of `O=C(N/N=C/c1cc([N+](=O)[O-])ccc1O)/C(=C\c1cccs1)NC(=O)c1ccccc1`, the Potency is reported as inconclusive: 11.2 µM [inhibitor, partial curve, poor fit]. For `COc1cccc(NC(=O)c2cccc(N3C(=O)C4CCC(C)CC4C3=O)c2)c1` (stereo not given), the Potency was “inactive”. With `Cc1ccc(S(=O)(=O)N2CCOC23CCN(S(=O)(=O)c2c(C)cc(C)cc2C)CC3)cc1` the Potency was inconclusive: 11.2 µM [inhibitor, partial curve, poor fit]. In the case of `Cc1cc(Nc2ccccc2C)nc(-n2nc(C)cc2C)n1`, the Potency is reported as inconclusive: 35.5 µM [inhibitor, single point]. With `Cc1ccc(S(=O)(=O)N(C)C)cc1NC(=O)C(C)Sc1ccccc1` (stereo not given) the Potency was inconclusive: 11.2 µM [inhibitor, single point]. In the case of `CCOc1ccc(-n2nc3ccc(NC(=O)CC)cc3n2)cc1`, the activity change, negative = inhibition is reported as inconclusive: 8.75% [activator]. With `O=C(Nc1ccncc1)c1ccc(NS(=O)(=O)c2cccc(F)c2)cc1` the Potency was inconclusive: 10 µM [inhibitor, partial curve]. For `CCC(=O)N(Cc1cc2cc(OC)ccc2[nH]c1=O)c1ccc(C)cc1C`, the Potency was inconclusive: 0.0517 µM [inhibitor, full curve, poor fit]. For `O=C(Nc1ccccc1C(=O)NC1CC1)c1ccc([N+](=O)[O-])o1`, the Potency was “inactive”. For `O=C(N/N=C/c1ccc(N2CCOCC2)o1)c1cccc(C(F)(F)F)c1`, the Potency was inconclusive: 25.9 µM [inhibitor, single point]. With `O=[N+]([O-])c1cnn(-c2nc(-c3ccco3)cc(C(F)(F)F)n2)c1` the Potency was inconclusive: 32.6 µM [inhibitor, partial curve, poor fit]. In the case of `Cc1coc2c(O)cc3c(c12)OC1(N2CCCCC2)C(=O)NCCCC31` (stereo not given), the Potency is reported as inconclusive: 10 µM [inhibitor, partial curve, poor fit]. With `Nc1ccc2nc3c(=O)n(CCc4ccccc4)c(=O)[nH]c3nc2c1` the Potency was inconclusive: 5.62 µM [activator, full curve]. For `CN(c1ccccc1)S(=O)(=O)c1cccc(NC(=O)CSc2ncn[nH]2)c1`, the Potency was inconclusive: 32.6 µM [inhibitor, partial curve, poor fit]. With `COC(=O)c1[nH]c2ccc(Br)cc2c1NC(=O)CN1CCCc2ccccc21` the Potency was inconclusive: 35.5 µM [inhibitor, single point]. In the case of `CCN(CC)CCCNC(=O)c1ccc2nc(N3CCCCC3)sc2c1`, the Potency is reported as inconclusive: 35.5 µM [activator, single point]. For `CCOc1ccc(NC(=S)NC(=O)c2c(Br)cnn2C)c([N+](=O)[O-])c1`, the Potency was inconclusive: 10 µM [activator, single point]. With `COc1ccc(-c2nc(-c3ccccc3)oc2NC(C)c2ccccc2)cc1` (stereo not given) the Potency was inconclusive: 2.99 µM [activator, partial curve, poor fit]. In the case of `O=C(O)Cc1ccc(Nc2cnn(C34CC5CC(CC(CC(=O)O)(C5)C3)C4)c(=O)c2Cl)cc1`, the Potency is reported as inconclusive: 12.6 µM [activator, partial curve, poor fit]. With `CC(C)COc1ccc(C/C(N)=N/n2cnnc2)cc1` the Potency was inconclusive: 35.5 µM [inhibitor, single point]. With `CC(=O)Nc1ccc(S(=O)(=O)NCCC(=O)Nc2ncccc2C)cc1` the Potency was inconclusive: 14.1 µM [activator, single point]. For `Cc1ccc(C(=O)NC2=NCCS2)cc1Cl`, the Potency was inconclusive: 35.5 µM [inhibitor, single point]. For `CC(C)(C)C(=O)O/N=C(\N)Cc1ccc(-c2csnn2)cc1`, the Potency was inconclusive: 4.47 µM [inhibitor, full curve, poor fit]. With `O=C(N/N=C/c1ccc2ncccc2c1)c1ccco1` the Potency was active: 2.51 µM. For `CCOC(=O)NN=C1C[C@@H](O)[C@@H](O)[C@@H]2[C@H]3C(=O)N(c4ccc(F)cc4F)C(=O)[C@@H]3CC[C@H]12`, the Potency was inconclusive: 1.19 µM [activator, single point]. For `COc1cccc(CC2(CO)CCN(Cc3cn(C)nc3C)CC2)c1`, the Potency was “inactive”. With `O=C(Nc1ccc(Oc2ccc3nc(NC(=O)c4ccccc4)[nH]c3c2)cc1)Nc1cc(C(F)(F)F)ccc1F` the Potency was active: 6.28 µM. For `CC(C)c1ccc(C2OCC(C)([N+](=O)[O-])CO2)cc1` (stereo not given), the Potency was inconclusive: 17.8 µM [activator, single point]. In the case of `O=C(O)CCc1ccc(-c2ccccc2)n1NC(=O)c1cccs1`, the Potency is reported as “inactive”. In the case of `O=C(/C=C/c1ccc2ccccc2n1)c1cc(Cl)ccc1O`, the Potency is reported as “inactive”. For `COc1ccc(-c2c(C(C)=O)c(C)n(C)c2C)cc1`, the Potency was inconclusive: 10 µM [activator, partial curve, poor fit].

— PubChem BioAssay AID540256 (National Center for Advancing Translational Sciences (NCATS), 2011)
% is set by controls: 0 for no effect and ±100 for the full control effect; potency is the fitted concentration of half-maximal effect.
